# According to the supplement of paper PMC4604168 (melanoma cell lines):
# Some of the results follow. Many values rest on one well or one pass, so single values are uncertain.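 Imaging used 1,536-well plates; nuclei positive for cleaved PARP by antibody were divided by total DNA-stained nuclei to yield the apoptosis fraction. Doses for screening kept most cells viable, and cell lines differ markedly in resting and induced cleaved-PARP levels.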
# How the values were obtained:
# Experiment in all cases: cleaved PARP positive nuclei fraction relative to DMSO control; melanoma cells; higher = more apoptosis
# Conditions in all cases: library dose: low library concentration; 72 h
# 501Mel = tested on: 501Mel
# A101D = tested on: A101D
# A2058 = tested on: A2058
# A375 = tested on: A375
# C32 = tested on: C32
# CBRC008 = tested on: CBRC008 (line from a melanoma biopsy)
# CBRC014 = tested on: CBRC014 (line from a melanoma biopsy)
# CBRC016 = tested on: CBRC016 (line from a melanoma biopsy)
# CBRC017 = tested on: CBRC017 (line from a melanoma biopsy)
# CBRC013 = tested on: CBRC013 (line from a melanoma biopsy)
Structure (SMILES),cleaved PARP positive nuclei fraction (501Mel),cleaved PARP positive nuclei fraction (A101D),cleaved PARP positive nuclei fraction (A2058),cleaved PARP positive nuclei fraction (A375),cleaved PARP positive nuclei fraction (C32),cleaved PARP positive nuclei fraction (CBRC008),cleaved PARP positive nuclei fraction (CBRC014),cleaved PARP positive nuclei fraction (CBRC016),cleaved PARP positive nuclei fraction (CBRC017),cleaved PARP positive nuclei fraction (CBRC013)
"CCCCCCCCCCCCCCCCCCOP(=O)([O-])OC1CC[N+](C)(C)CC1 [Perifosine] + COc1ccc(Cl)c(Nc2nc3ccccc3nc2NS(=O)(=O)c2cccc(NC(=O)C(C)(C)N)c2)c1 [XL147] (first compound 0.4 µM, partner dose 0.8 µM)",76.1%,95.7%,73.4%,104%,65.4%,142%,116%,113%,155%,–
"COc1cc([C@@H]2c3cc4c(cc3[C@@H](O[C@@H]3O[C@@H]5CO[C@@H](C)O[C@H]5[C@H](O)[C@H]3O)[C@H]3COC(=O)[C@H]23)OCO4)cc(OC)c1O [etoposide] + Cn1c(=O)n(-c2ccc(C(C)(C)C#N)cc2)c2c3cc(-c4cnc5ccccc5c4)ccc3ncc21 [NVP-BEZ235] (first compound 0.02 µM, partner dose 0.004 µM)",52.6%,200%,133%,129%,234%,88.9%,84.7%,115%,139%,–
"Cc1ccc(Nc2nccc(N(C)c3ccc4c(C)n(C)nc4c3)n2)cc1S(N)(=O)=O [Pazopanib] + Cc1nc(Nc2ncc(C(=O)Nc3c(C)cccc3Cl)s2)cc(N2CCN(CCO)CC2)n1 [dasatanib] (first compound 0.4 µM, partner dose 0.004 µM)",89.1%,94.6%,151%,120%,75%,96%,139%,44.7%,94.1%,–
"O=C(Nc1cc(C(F)(F)F)cc(C(F)(F)F)c1)c1cc(Cl)ccc1O + Cn1sc(=O)n(Cc2ccccc2)c1=O [TDZD-8] (first compound 0.016 µM, partner dose 0.4 µM)",90.6%,91%,254%,139%,286%,61.7%,122%,47.7%,109%,–
"N#CC[C@H](C1CCCC1)n1cc(-c2ncnc3[nH]ccc23)cn1 [ruxolitinib] + CC(=O)O[C@@]12CO[C@@H]1C[C@H](O)[C@@]1(C)C(=O)[C@H](O)C3=C(C)[C@@H](OC(=O)[C@H](O)[C@@H](NC(=O)OC(C)(C)C)c4ccccc4)C[C@@](O)([C@@H](OC(=O)c4ccccc4)[C@H]21)C3(C)C [Docetaxel] (first compound 1 µM, partner dose 0.0001 µM)",288%,57.9%,1580%,2150%,72.8%,738%,122%,371%,222%,–
"CC[C@]1(O)C[C@H]2CN(CCc3c([nH]c4ccccc34)[C@@](C(=O)OC)(c3cc4c(cc3OC)N(C=O)[C@H]3[C@@](O)(C(=O)OC)[C@H](OC(C)=O)[C@]5(CC)C=CCN6CC[C@]43[C@@H]65)C2)C1 [vincristine] + Cn1cnc2c(F)c(Nc3ccc(Br)cc3Cl)c(C(=O)NOCCO)cc21 [selumetinib] (first compound 0.0001 µM, partner dose 0.015 µM)",414%,125%,270%,131%,99.8%,209%,91%,67.6%,176%,–
"O=C(Nc1cc(C(F)(F)F)cc(C(F)(F)F)c1)c1cc(Cl)ccc1O + C[C@@H](N)c1ccc(C(=O)Nc2ccnc3[nH]ccc23)cc1 [RKI983] (first compound 0.016 µM, partner dose 0.4 µM)",83.9%,232%,128%,339%,103%,93.2%,216%,114%,82.1%,–
"CCCCCCCCCCCCCCCCCCOP(=O)([O-])OC1CC[N+](C)(C)CC1 [Perifosine] + CCN(CC)CCNC(=O)c1c(C)[nH]c(/C=C2\C(=O)Nc3ccc(F)cc32)c1C [sunitinib] (first compound 0.4 µM, partner dose 0.4 µM)",369%,51.1%,61.2%,94.4%,80.6%,48.3%,106%,72.1%,138%,–
"O=C(Nc1cc(C(F)(F)F)cc(C(F)(F)F)c1)c1cc(Cl)ccc1O + Cn1nnc2c(C(N)=O)ncn2c1=O [temozolomide] (first compound 0.016 µM, partner dose 2 µM)",108%,127%,43.8%,158%,78.8%,142%,94.3%,67.3%,98.4%,–
"O=c1[nH]nc(Sc2ncc([N+](=O)[O-])s2)n1-c1ccc2c(c1)OCCO2 + C[C@]1(c2nc3c(C(N)=O)cccc3[nH]2)CCCN1 [Veliparib] (first compound 0.2 µM, partner dose 1.4 µM)",91.1%,93.8%,202%,112%,127%,71.5%,75%,96.2%,85.8%,–
"Cc1cn(-c2cc(NC(=O)c3ccc(C)c(Nc4nccc(-c5cccnc5)n4)c3)cc(C(F)(F)F)c2)cn1 [nilotinib] + C[C@@H](N)c1ccc(C(=O)Nc2ccnc3[nH]ccc23)cc1 [RKI983] (first compound 0.2 µM, partner dose 0.4 µM)",129%,215%,124%,214%,103%,167%,119%,344%,90.6%,–
"O=C(/C=C/c1cccnc1)NCCCCC1CCN(C(=O)c2ccccc2)CC1 + CC(C)C[C@H](NC(=O)[C@H](Cc1ccccc1)NC(=O)c1cnccn1)B(O)O [Bortezomib] (first compound 0.01 µM, partner dose 0.001 µM)",108%,111%,102%,187%,85.4%,2130%,122%,487%,444%,–
"Cc1cn(-c2cc(NC(=O)c3ccc(C)c(Nc4nccc(-c5cccnc5)n4)c3)cc(C(F)(F)F)c2)cn1 [nilotinib] + Cn1c(Nc2ccc(C(F)(F)F)cc2)nc2cc(Oc3ccnc(-c4ncc(C(F)(F)F)[nH]4)c3)ccc21 [CHIR265] (first compound 0.2 µM, partner dose 0.08 µM)",118%,211%,109%,168%,74%,44.8%,106%,109%,101%,–
"COc1cc([C@@H]2c3cc4c(cc3[C@@H](O[C@@H]3O[C@@H]5CO[C@@H](C)O[C@H]5[C@H](O)[C@H]3O)[C@H]3COC(=O)[C@H]23)OCO4)cc(OC)c1O [etoposide] + C[C@@H](Oc1cc(-c2cnn(C3CCNCC3)c2)cnc1N)c1c(Cl)ccc(F)c1Cl [Crizotinib] (first compound 0.02 µM, partner dose 0.2 µM)",98.6%,141%,165%,210%,202%,102%,102%,78.4%,101%,–
"N#CC[C@H](C1CCCC1)n1cc(-c2ncnc3[nH]ccc23)cn1 [ruxolitinib] + C#Cc1cccc(Nc2ncnc3cc(OCCOC)c(OCCOC)cc23)c1 [erlotinib] (first compound 1 µM, partner dose 0.8 µM)",44.9%,100%,633%,352%,75.4%,118%,95.4%,225%,114%,–
"CCCCCCCCCCCCCCCCCCOP(=O)([O-])OC1CC[N+](C)(C)CC1 [Perifosine] + O=c1cc(-c2cccc3c2Sc2ccccc2S3)oc(N2CCOCC2)c1 [KU55933] (first compound 0.4 µM, partner dose 1 µM)",116%,24.8%,361%,–,148%,78%,71.2%,45%,121%,–
"COc1cc([C@@H]2c3cc4c(cc3[C@@H](O[C@@H]3O[C@@H]5CO[C@@H](C)O[C@H]5[C@H](O)[C@H]3O)[C@H]3COC(=O)[C@H]23)OCO4)cc(OC)c1O [etoposide] + Cn1c(Nc2ccc(C(F)(F)F)cc2)nc2cc(Oc3ccnc(-c4ncc(C(F)(F)F)[nH]4)c3)ccc21 [CHIR265] (first compound 0.02 µM, partner dose 0.08 µM)",110%,150%,196%,392%,226%,104%,–,238%,127%,–
"O=c1[nH]nc(Sc2ncc([N+](=O)[O-])s2)n1-c1ccc2c(c1)OCCO2 + Oc1cc(-c2nc(-c3ccccc3)[nH]c2-c2ccncc2)ccc1Cl [L779450] (first compound 0.2 µM, partner dose 0.2 µM)",168%,28.4%,64.4%,–,44.1%,74.5%,106%,70.8%,167%,–
"Cc1cn(-c2cc(NC(=O)c3ccc(C)c(Nc4nccc(-c5cccnc5)n4)c3)cc(C(F)(F)F)c2)cn1 [nilotinib] + NCC(=O)Nc1ccc(-n2nc(C(F)(F)F)cc2-c2ccc3c(ccc4ccccc43)c2)cc1 [OSU03012] (first compound 0.2 µM, partner dose 1 µM)",504%,395%,207%,3840%,108%,–,90.1%,310%,119%,140%
"COc1cc([C@@H]2c3cc4c(cc3[C@@H](O[C@@H]3O[C@@H]5CO[C@@H](C)O[C@H]5[C@H](O)[C@H]3O)[C@H]3COC(=O)[C@H]23)OCO4)cc(OC)c1O [etoposide] + Nc1nc(F)nc2c1ncn2[C@@H]1O[C@H](CO)[C@@H](O)[C@@H]1O [fludarabine] (first compound 0.02 µM, partner dose 0.2 µM)",15600%,46.5%,85.5%,1650%,81.7%,81.3%,–,177%,119%,–

# An excerpt from above, limited to cleaved PARP positive nuclei fraction (CBRC017) and cleaved PARP positive nuclei fraction (CBRC013).
Structure (SMILES) | cleaved PARP positive nuclei fraction (CBRC017) | cleaved PARP positive nuclei fraction (CBRC013)
O=c1[nH]nc(Sc2ncc([N+](=O)[O-])s2)n1-c1ccc2c(c1)OCCO2 + Oc1cc(-c2nc(-c3ccccc3)[nH]c2-c2ccncc2)ccc1Cl [L779450] (first compound 0.2 µM, partner dose 0.2 µM) | 167% | –
Cc1cn(-c2cc(NC(=O)c3ccc(C)c(Nc4nccc(-c5cccnc5)n4)c3)cc(C(F)(F)F)c2)cn1 [nilotinib] + NCC(=O)Nc1ccc(-n2nc(C(F)(F)F)cc2-c2ccc3c(ccc4ccccc43)c2)cc1 [OSU03012] (first compound 0.2 µM, partner dose 1 µM) | 119% | 140%
